From article PMC9950447, “Targeting USP10 induces degradation of oncogenic ANLN in esophageal squamous cell carcinoma” (Cell Death and Differentiation, 2022)
Results are given in words; binding and its absence hold for the method and conditions named. In cells and extracts the contact can be indirect. These calls come from enrichment with a bait or labelling near it, and not all partners need be listed.

Sequences of proteins named here, by UniProt entry; tags and fusion partners are left off. A change or cut given only in a name is not applied to a line headed by its entry. A line that says so, or that is headed by a name, gives the form on record, which may keep a tag or linker.
UniProt Q93009: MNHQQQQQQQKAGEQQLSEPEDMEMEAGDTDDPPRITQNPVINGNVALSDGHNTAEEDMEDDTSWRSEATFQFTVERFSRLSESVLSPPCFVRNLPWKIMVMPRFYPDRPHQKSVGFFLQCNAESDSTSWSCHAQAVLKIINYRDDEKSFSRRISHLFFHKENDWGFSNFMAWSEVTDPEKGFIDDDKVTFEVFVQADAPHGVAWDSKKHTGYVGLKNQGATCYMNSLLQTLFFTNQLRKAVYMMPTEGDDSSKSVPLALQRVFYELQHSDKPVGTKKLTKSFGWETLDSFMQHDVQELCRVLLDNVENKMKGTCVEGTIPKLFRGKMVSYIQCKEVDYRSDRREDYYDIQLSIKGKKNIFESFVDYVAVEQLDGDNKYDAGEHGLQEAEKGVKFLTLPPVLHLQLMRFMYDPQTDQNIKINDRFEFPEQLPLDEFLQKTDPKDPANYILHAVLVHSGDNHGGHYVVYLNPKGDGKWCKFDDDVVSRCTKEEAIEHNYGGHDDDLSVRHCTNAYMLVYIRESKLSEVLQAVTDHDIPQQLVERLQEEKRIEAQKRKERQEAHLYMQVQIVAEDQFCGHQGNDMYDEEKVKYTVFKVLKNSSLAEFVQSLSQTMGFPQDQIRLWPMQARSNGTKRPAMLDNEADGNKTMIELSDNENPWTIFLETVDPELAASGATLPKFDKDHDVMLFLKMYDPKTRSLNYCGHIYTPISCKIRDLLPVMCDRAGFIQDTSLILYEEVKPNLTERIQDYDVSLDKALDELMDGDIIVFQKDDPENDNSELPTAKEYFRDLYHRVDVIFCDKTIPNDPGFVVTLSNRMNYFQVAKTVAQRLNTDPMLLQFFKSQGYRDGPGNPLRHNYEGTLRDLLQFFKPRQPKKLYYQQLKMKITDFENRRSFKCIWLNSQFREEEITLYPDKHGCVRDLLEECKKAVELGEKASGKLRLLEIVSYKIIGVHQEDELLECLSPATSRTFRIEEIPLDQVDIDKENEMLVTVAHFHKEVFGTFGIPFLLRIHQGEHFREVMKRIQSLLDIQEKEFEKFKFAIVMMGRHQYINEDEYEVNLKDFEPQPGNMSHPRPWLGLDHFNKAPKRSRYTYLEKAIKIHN
USP10, endogenous (Q14694-3, form named): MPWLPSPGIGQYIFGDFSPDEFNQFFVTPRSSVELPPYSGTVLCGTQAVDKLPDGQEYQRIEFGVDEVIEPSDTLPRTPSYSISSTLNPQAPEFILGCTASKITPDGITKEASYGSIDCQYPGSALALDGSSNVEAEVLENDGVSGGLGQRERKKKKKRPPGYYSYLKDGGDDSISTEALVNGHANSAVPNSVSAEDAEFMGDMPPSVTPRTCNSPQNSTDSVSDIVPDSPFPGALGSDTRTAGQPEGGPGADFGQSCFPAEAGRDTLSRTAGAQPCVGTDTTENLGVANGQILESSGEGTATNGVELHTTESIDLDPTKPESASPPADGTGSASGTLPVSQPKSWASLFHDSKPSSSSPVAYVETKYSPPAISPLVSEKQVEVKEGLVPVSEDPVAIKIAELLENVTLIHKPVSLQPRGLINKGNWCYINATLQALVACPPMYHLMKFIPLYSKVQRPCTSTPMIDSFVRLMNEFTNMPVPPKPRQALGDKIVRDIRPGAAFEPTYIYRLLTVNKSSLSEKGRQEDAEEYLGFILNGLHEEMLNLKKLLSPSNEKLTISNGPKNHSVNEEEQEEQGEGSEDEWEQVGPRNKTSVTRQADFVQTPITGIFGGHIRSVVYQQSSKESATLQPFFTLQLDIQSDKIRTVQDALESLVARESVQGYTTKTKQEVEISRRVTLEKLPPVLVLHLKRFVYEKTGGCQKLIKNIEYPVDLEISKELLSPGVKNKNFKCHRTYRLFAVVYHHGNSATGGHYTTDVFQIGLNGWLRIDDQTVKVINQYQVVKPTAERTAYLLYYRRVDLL
UniProt Q9Y5T5: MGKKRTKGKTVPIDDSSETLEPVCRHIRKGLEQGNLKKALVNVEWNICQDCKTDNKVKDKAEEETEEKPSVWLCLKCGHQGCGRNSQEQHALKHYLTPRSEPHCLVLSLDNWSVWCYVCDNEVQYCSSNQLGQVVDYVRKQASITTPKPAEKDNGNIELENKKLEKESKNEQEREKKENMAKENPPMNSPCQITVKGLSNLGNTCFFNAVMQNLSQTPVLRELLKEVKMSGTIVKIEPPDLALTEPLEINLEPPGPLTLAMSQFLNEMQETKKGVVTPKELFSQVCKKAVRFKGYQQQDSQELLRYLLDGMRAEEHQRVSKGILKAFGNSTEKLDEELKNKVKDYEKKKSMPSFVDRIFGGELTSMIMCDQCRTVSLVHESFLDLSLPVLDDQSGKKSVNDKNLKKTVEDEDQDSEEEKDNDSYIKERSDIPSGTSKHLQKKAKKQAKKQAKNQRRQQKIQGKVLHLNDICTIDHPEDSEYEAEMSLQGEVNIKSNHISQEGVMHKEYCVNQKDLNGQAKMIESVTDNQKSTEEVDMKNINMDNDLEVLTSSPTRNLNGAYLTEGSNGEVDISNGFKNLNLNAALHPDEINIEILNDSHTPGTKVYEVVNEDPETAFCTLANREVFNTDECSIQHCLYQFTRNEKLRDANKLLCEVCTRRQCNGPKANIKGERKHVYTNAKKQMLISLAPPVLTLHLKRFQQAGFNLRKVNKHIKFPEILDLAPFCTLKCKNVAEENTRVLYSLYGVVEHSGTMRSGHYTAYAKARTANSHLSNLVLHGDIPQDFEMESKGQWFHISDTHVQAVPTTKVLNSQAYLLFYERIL

T1: Anillin (ANLN), endogenous (human (endogenous in KYSE150 and KYSE30)) (UniProt Q9NQW6)
T1 sequence: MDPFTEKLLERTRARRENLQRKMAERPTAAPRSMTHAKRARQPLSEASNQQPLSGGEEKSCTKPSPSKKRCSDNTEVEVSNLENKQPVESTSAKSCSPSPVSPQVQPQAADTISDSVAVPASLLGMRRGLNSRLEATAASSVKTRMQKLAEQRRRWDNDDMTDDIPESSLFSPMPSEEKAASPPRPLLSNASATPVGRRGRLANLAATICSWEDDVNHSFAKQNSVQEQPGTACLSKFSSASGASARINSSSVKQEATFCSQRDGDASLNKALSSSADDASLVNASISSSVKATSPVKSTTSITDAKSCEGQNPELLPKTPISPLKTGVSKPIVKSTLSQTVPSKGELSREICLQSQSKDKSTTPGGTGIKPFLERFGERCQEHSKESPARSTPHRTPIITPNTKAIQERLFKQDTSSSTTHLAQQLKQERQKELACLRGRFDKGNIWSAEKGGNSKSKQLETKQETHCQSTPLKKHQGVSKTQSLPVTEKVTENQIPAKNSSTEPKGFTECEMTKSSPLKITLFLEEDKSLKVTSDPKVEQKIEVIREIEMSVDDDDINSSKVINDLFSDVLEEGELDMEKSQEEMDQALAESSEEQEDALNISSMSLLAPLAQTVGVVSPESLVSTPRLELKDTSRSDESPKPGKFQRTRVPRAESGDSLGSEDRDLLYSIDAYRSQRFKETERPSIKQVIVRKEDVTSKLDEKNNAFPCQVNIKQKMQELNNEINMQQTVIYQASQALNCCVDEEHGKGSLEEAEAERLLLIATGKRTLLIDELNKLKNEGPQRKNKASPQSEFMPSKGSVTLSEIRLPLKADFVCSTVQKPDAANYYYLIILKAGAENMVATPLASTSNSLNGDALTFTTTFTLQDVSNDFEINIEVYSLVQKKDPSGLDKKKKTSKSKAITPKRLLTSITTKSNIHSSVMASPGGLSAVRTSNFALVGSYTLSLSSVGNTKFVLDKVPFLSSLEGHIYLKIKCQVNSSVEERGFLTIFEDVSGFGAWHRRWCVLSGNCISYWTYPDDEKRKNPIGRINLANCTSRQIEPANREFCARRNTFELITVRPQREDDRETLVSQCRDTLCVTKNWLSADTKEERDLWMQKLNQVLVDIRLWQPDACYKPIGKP

B1: USP39, endogenous (protein, UniProt Q53GS9 1-565)
chain: MSGRSKRESRGSTRGKRESESRGSSGRVKRERDREREPEAASSRGSPVRVKREFEPASAREAPASVVPFVRVKREREVDEDSEPEREVRAKNGRVDSEDRRSRHCPYLDTINRSVLDFDFEKLCSISLSHINAYACLVCGKYFQGRGLKSHAYIHSVQFSHHVFLNLHTLKFYCLPDNYEIIDSSLEDITYVLKPTFTKQQIANLDKQAKLSRAYDGTTYLPGIVGLNNIKANDYANAVLQALSNVPPLRNYFLEEDNYKNIKRPPGDIMFLLVQRFGELMRKLWNPRNFKAHVSPHEMLQAVVLCSKKTFQITKQGDGVDFLSWFLNALHSALGGTKKKKKTIVTDVFQGSMRIFTKKLPHPDLPAEEKEQLLHNDEYQETMVESTFMYLTLDLPTAPLYKDEKEQLIIPQVPLFNILAKFNGITEKEYKTYKENFLKRFQLTKLPPYLIFCIKRFTKNNFFVEKNPTIVNFPITNVDLREYLSEEVQAVHKNTTYDLIANIVHDGKPSEGSYRIHVLHHGTGKWYELQDLQVTDILPQMITLSEAYIQIWKRRDNDETNQQGA

Biological target: T1, Anillin (ANLN), endogenous (human (endogenous in KYSE150 and KYSE30))
Assay: affinity purification with mass spectrometry; endogenous ANLN enriched by immunoprecipitation from KYSE150 cells, SDS-PAGE, in-gel trypsin digestion, LC-MS/MS

Molecule	binding
USP7, endogenous (from UniProt Q93009 1-1102) (enzyme)	binds
USP10, endogenous (from UniProt Q14694-3 1-802) (enzyme)	binds
USP16, endogenous (from UniProt Q9Y5T5 1-823) (enzyme)	binds
B1	binds
